In article PMC3184960:
Changes are numbered by the printed parent chain. Numbers in names are those of the source. No constants are given. Whether binding was seen depends on the method and setting. For some of these results: Binding seen in cells or lysates may run through a third protein. Some results given as binding are weak or reduced against the parent protein; the word gives no strength. For some of these results: Where a sequence is shown, tags or fusion partners need not be part of it.

The chains behind the UniProt entries cited, without tags or fusion partners.
UniProt P03372: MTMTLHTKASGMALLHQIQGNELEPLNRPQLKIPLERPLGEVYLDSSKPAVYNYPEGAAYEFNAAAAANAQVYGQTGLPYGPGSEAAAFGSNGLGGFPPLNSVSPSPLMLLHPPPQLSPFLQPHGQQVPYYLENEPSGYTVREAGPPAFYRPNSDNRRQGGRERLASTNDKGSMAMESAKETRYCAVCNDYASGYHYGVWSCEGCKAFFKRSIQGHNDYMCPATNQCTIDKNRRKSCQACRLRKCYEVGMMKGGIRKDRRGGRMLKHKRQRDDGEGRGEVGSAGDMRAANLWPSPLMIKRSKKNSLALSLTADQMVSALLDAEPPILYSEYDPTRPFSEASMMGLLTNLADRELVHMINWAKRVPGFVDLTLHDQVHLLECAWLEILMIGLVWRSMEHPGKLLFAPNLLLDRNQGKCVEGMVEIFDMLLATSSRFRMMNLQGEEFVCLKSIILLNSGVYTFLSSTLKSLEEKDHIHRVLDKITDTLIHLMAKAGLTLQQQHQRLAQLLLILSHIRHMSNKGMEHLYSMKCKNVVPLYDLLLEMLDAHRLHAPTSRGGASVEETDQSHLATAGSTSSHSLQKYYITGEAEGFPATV

B1: c-Myc-tagged wild-type XAP2 (protein, UniProt O00170 1-330)
chain: MADIIARLREDGIQKRVIQEGRGELPDFQDGTKATFHYRTLHSDDEGTVLDDSRARGKPMELIIGKKFKLPVWETIVCTMREGEIAQFLCDIKHVVLYPLVAKSLRNIAVGKDPLEGQRHCCGVAQMREHSSLGHADLDALQQNPQPLIFHMEMLKVESPGTYQQDPWAMTDEEKAKAVPLIHQEGNRLYREGHVKEAAAKYYDAIACLKNLQMKEQPGSPEWIQLDQQITPLLLNYCQCKLVVEEYYEVLDHCSSILNKYDDNVKAYFKRGKAHAAVWNAQEAQADFAKVLELDPALAPVVSRELRALEARIRQKDEEDKARFRGIFSH
B2: c-Myc-tagged XAP2 V49M (protein, UniProt O00170 1-330)
chain: B1 chain with V49M
B3: c-Myc-tagged XAP2 R271W (protein, UniProt O00170 1-330)
chain: B1 chain with R271W
B4: XAP2, endogenous in MCF-7 cells (protein, UniProt O00170 1-330)
chain: B1 chain

Experiments:
[1] = target: ERα, transfected in HeLa cells (UniProt P03372); test: co-IP; HeLa cells co-transfected with cMyc-tagged XAP2 constructs and ERα, DMSO or 10 nM E2 for 1 h; Pierce classic IP kit, IP with ERα antibody, blot with c-Myc antibody
[2] = target: ERα, endogenous in MCF-7 cells (human (endogenous in MCF-7)) (UniProt P03372); test: Re-ChIP (sequential chromatin immunoprecipitation); MCF-7 cells, DMSO or 10 nM E2 for 45 min, cross-linked 15 min with 1.5% formaldehyde; chromatin precipitated in turn with XAP2 and ERα antibodies; PCR of pS2 and GREB1 promoter regions

Binder	binding [1]	binding [2]
B1	binds	
B2	binds	
B3	binds	
B4		binds
